Experimental data: doi:10.1101/2021.06.17.448807
These are yes or no findings as the source states them, for the method shown. In cells and extracts the contact can be indirect. Here binding means that the protein was enriched with, or labelled near, the bait; the list need not be complete.

Protein sequences, listed by entry. Tags and fused reporters are not part of them.
UniProt Q61584: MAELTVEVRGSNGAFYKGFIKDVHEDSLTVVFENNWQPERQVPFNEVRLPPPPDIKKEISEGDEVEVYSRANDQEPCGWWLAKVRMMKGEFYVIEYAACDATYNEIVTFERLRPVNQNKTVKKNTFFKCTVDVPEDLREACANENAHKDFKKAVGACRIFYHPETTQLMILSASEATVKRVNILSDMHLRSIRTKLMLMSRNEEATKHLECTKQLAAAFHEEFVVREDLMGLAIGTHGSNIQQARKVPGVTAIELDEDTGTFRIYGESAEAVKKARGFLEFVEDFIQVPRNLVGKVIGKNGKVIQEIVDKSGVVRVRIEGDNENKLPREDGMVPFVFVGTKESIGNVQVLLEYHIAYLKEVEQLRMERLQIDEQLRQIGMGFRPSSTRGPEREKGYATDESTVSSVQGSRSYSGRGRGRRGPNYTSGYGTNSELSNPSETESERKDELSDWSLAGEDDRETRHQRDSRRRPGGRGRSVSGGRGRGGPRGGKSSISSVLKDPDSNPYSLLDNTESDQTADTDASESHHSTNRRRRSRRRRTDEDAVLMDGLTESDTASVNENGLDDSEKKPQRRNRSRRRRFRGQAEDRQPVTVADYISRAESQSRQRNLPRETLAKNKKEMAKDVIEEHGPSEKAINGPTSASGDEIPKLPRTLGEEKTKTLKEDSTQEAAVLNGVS
UniProt O70133: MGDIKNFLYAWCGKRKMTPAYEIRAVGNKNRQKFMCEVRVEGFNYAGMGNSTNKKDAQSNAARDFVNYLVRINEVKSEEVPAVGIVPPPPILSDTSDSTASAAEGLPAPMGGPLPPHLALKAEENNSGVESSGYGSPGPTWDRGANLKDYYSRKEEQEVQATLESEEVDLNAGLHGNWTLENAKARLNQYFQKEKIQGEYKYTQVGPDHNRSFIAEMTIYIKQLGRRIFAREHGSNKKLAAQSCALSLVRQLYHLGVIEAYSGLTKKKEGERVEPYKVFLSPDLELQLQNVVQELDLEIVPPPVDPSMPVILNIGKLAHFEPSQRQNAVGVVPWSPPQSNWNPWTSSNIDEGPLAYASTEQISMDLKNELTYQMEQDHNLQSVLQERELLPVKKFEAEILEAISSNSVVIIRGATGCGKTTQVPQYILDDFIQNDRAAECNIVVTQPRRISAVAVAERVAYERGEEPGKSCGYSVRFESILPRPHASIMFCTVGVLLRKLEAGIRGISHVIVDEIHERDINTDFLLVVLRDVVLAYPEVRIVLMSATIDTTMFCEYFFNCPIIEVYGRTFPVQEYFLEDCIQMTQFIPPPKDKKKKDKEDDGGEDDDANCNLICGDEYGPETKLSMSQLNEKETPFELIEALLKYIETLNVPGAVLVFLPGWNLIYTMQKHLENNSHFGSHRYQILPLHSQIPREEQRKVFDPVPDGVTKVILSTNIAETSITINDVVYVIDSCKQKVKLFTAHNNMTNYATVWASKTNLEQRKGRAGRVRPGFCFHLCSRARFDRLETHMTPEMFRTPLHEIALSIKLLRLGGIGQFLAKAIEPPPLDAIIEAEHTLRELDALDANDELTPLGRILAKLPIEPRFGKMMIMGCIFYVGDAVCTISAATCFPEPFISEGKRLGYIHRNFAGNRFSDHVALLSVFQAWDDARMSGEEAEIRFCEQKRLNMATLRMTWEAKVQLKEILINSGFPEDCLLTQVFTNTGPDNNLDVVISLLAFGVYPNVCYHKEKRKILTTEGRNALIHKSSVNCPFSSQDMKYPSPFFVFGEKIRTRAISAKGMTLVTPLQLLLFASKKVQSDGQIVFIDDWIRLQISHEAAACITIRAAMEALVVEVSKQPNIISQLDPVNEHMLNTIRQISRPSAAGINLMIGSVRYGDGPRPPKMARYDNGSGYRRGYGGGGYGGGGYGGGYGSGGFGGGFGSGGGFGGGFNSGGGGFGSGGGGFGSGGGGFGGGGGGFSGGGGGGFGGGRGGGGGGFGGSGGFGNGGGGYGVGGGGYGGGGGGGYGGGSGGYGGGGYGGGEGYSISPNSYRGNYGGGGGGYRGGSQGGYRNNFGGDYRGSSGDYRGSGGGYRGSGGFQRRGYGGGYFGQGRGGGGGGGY

B1: HnRNP L (protein, UniProt Q8R081 1-586)
chain: MSRRLLPRAEKRRRRLEQRQQPDEQLRRAGAMVKMAAAGGGGGGGRYYGGGNEGGRAPKRLKTENAGDQHGGGGGGGSGAAGGGGGENYDDPHKTPASPVVHIRGLIDGVVEADLVEALQEFGPISYVVVMPKKRQALVEFEDVLGACNAVNYAADNQIYIAGHPAFVNYSTSQKISRPGDSDDSRSVNSVLLFTILNPIYSITTDVLYTICNPCGPVQRIVIFRKNGVQAMVEFDSVQSAQRAKASLNGADIYSGCCTLKIEYAKPTRLNVFKNDQDTWDYTNPNLSGQGDPGSNPNKRQRQPPLLGDHPAEYGGPHGGYHSHYHDEGYGPPPPHYEGRRMGPPVGGHRRGPSRYGPQYGHPPPPPPPPDYGPHADSPVLMVYGLDQSKMNCDRVFNVFCLYGNVEKVKFMKSKPGAAMVEMADGYAVDRAITHLNNNFMFGQKMNVCVSKQPAIMPGQSYGLEDGSCSYKDFSESRNNRFSTPEQAAKNRIQHPSNVLHFFNAPLEVTEENFFEICDELGVKRPTSVKVFSGKSERSSSGLLEWDSKSDALETLGFLNHYQMKNPNGPYPYTLKLCFSTAQHAS
B2: SF3B1 (protein, UniProt Q99NB9 1-1304)
chain: MAKIAKTHEDIEAQIREIQGKKAALDEAQGVGLDSTGYYDQEIYGGSDSRFAGYVTSIAATELEDDDDDYSSSTSLLGQKKPGYHAPVALLNDIPQSTEQYDPFAEHRPPKIADREDEYKKHRRTMIISPERLDPFADGGKTPDPKMNARTYMDVMREQHLTKEEREIRQQLAEKAKAGELKVVNGAAASQPPSKRKRRWDQTADQTPGATPKKLSSWDQAETPGHTPSLRWDETPGRAKGSETPGATPGSKIWDPTPSHTPAGAATPGRGDTPGHATPGHGGATSSARKNRWDETPKTERDTPGHGSGWAETPRTDRGGDSIGETPTPGASKRKSRWDETPASQMGGSTPVLTPGKTPIGTPAMNMATPTPGHIMSMTPEQLQAWRWEREIDERNRPLSDEELDAMFPEGYKVLPPPAGYVPIRTPARKLTATPTPLGGMTGFHMQTEDRTMKSVNDQPSGNLPFLKPDDIQYFDKLLVDVDESTLSPEEQKERKIMKLLLKIKNGTPPMRKAALRQITDKAREFGAGPLFNQILPLLMSPTLEDQERHLLVKVIDRILYKLDDLVRPYVHKILVVIEPLLIDEDYYARVEGREIISNLAKAAGLATMISTMRPDIDNMDEYVRNTTARAFAVVASALGIPSLLPFLKAVCKSKKSWQARHTGIKIVQQIAILMGCAILPHLRSLVEIIEHGLVDEQQKVRTISALAIAALAEAATPYGIESFDSVLKPLWKGIRQHRGKGLAAFLKAIGYLIPLMDAEYANYYTREVMLILIREFQSPDEEMKKIVLKVVKQCCGTDGVEANYIKTEILPPFFKHFWQHRMALDRRNYRQLVDTTVELANKVGAAEIISRIVDDLKDEAEQYRKMVMETIEKIMGNLGAADIDHKLEEQLIDGILYAFQEQTTEDSVMLNGFGTVVNALGKRVKPYLPQICGTVLWRLNNKSAKVRQQAADLISRTAVVMKTCQEEKLMGHLGVVLYEYLGEEYPEVLGSILGALKAIVNVIGMHKMTPPIKDLLPRLTPILKNRHEKVQENCIDLVGRIADRGAEYVSAREWMRICFELLELLKAHKKAIRRATVNTFGYIAKAIGPHDVLATLLNNLKVQERQNRVCTTVAIAIVAETCSPFTVLPALMNEYRVPELNVQNGVLKSLSFLFEYIGEMGKDYIYAVTPLLEDALMDRDLVHRQTASAVVQHMSLGVYGFGCEDSLNHLLNYVWPNVFETSPHVIQAVMGALEGLRVAIGPCRMLQYCLQGLFHPARKVRDVYWKIYNSIYIGSQDALIAHYPRIYNDDKNTYIRYDLDYIL
B3: SF3A1 (protein, UniProt Q8K4Z5 1-791)
chain: MQAGPVQAVPPPPPVATESKQPIEEEASSKEDPTPSKPVVGIIYPPPEVRNIVDKTASFVARNGPEFEARIRQNEINNPKFNFLNPNDPYHAYYRHKVSEFKEGKAQEPSAAIPKVMQQQQQATQQQLPQKVQAQVIQETIVPKEPPPEFEFIADPPSISAFDLDVVKLTAQFVARNGRQFLTQLMQKEQRNYQFDFLRPQHSLFNYFTKLVEQYTKILIPPKGLFSKLKKEAENPREVLDQVCYRVEWAKFQERERKKEEEEKEKERVAYAQIDWHDFVVVETVDFQPNEQGNFPPPTTPEELGARILIQERYEKFGESEEVEMEVESDEEDQEKAEETPSQLDQDTQVQDMDEGSDDEEEGQKVPPPPETPMPPPLPPTPDQVIVRKDYDPKASKPLPPAPAPDEYLVSPITGEKIPASKMQEHMRIGLLDPRWLEQRDRSIREKQSDDEVYAPGLDIESSLKQLAERRTDIFGVEETAIGKKIGEEEIQKPEEKVTWDGHSGSMARTQQAAQANITLQEQIEAIHKAKGLVPEDDTKEKIGPSKPNEIPQQPPPPSSATNIPSSAPPITSVPRPPAMPPPVRTTVVSAVPVMPRPPMASVVRLPPGSVIAPMPPIIHAPRINVVPMPPAAPPIMAPRPPPMIVPTAFVPAPPVAPVPAPAPMPPVHPPPPMEDEPPSKKLKTEDSLMPEEEFLRRNKGPVSIKVQVPNMQDKTEWKLNGQGLVFTLPLTDQVSVIKVKIHEATGMPAGKQKLQYEGIFIKDSNSLAYYNMASGAVIHLALKERGGRKK

The molecules below were run against T1, Transcription factor-like 5 (mouse (endogenous in testis)) (UniProt Q32NY8) (assay: affinity purification with mass spectrometry).
T1 sequence: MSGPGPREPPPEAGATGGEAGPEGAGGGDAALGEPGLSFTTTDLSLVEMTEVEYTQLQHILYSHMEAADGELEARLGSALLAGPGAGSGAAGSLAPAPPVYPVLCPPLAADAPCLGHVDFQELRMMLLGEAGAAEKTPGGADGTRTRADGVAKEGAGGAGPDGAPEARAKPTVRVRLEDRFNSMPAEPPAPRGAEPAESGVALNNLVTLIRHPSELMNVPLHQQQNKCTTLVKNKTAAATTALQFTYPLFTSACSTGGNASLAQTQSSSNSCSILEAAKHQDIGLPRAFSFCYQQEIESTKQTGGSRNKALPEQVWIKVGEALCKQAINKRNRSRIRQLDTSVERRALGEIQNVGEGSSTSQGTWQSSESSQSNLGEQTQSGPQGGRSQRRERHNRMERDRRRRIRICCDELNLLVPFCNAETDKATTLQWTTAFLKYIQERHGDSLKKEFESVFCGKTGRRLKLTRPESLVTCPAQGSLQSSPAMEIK

binding, binds:
HnRNP K (from UniProt P61979 1-463)
fragile-X mental retardation syndrome-related protein 1 (from UniProt Q61584 1-677)
DExH-box helicase 9 (from UniProt O70133 1-1380)

Target: T1, Transcription factor-like 5 (mouse (endogenous in testis))
Test: affinity purification with mass spectrometry
Remark: another data set of the same source

binding, binds:
B1
B2
B3
